The target in this assay is Full-length B7.2 overexpressed in 293T cells (UniProt P42081). Kind of assay: co-IP; 293T cells overexpressing full-length B7.2, 24 h later incubated 24 h with SB HCVpp or JFH1 HCVpp; lysates immunoprecipitated with anti-B7.2, immunoblot. (In general: In western blotting, separated proteins are transferred to a membrane and probed.)

Amino acid sequences for entries named in this document (tags omitted). Residues count along the entry.
UniProt P42081, residues 24-329: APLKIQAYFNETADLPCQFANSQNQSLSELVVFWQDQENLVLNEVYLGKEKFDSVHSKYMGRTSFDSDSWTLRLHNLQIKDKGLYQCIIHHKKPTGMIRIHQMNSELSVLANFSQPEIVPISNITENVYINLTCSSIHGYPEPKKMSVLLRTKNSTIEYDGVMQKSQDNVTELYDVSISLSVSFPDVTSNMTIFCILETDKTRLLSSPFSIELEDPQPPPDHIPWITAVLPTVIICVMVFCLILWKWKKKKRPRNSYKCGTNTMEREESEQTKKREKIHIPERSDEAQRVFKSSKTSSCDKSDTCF
UniProt Q99IB8, residues 384-750: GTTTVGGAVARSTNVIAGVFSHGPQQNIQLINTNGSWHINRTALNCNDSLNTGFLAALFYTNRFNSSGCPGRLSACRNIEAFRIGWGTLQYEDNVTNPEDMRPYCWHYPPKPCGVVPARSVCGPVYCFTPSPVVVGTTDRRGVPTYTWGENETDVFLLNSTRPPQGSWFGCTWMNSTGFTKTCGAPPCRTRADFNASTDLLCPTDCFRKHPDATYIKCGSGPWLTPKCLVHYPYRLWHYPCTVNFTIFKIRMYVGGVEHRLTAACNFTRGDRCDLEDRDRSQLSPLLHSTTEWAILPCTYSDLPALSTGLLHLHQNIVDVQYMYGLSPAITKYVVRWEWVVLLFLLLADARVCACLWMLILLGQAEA

These are yes or no findings as the source states them, for the method shown. In cells and extracts the contact can be indirect.

In the case of “E2 of HCV JFH1 strain carried on HCVpp (JFH1 HCVpp) (from UniProt Q99IB8 384-750)”, the binding entry was “no binding”.

The values are drawn from publication PMC5227552.
